Assay results: US7067646
Results are given in words; binding and its absence hold for the method and conditions named. Binding seen in cells or lysates may run through a third protein. Some binding calls cover weakened binding; strength is not graded here. For part of these data: Where a sequence is shown, tags or fusion partners need not be part of it.

Sequences of proteins named here, by UniProt entry; tags and fusion partners are left off. A change or cut given only in a name is not applied to a line headed by its entry. Residues count along the entry.
UniProt Q5T4S7: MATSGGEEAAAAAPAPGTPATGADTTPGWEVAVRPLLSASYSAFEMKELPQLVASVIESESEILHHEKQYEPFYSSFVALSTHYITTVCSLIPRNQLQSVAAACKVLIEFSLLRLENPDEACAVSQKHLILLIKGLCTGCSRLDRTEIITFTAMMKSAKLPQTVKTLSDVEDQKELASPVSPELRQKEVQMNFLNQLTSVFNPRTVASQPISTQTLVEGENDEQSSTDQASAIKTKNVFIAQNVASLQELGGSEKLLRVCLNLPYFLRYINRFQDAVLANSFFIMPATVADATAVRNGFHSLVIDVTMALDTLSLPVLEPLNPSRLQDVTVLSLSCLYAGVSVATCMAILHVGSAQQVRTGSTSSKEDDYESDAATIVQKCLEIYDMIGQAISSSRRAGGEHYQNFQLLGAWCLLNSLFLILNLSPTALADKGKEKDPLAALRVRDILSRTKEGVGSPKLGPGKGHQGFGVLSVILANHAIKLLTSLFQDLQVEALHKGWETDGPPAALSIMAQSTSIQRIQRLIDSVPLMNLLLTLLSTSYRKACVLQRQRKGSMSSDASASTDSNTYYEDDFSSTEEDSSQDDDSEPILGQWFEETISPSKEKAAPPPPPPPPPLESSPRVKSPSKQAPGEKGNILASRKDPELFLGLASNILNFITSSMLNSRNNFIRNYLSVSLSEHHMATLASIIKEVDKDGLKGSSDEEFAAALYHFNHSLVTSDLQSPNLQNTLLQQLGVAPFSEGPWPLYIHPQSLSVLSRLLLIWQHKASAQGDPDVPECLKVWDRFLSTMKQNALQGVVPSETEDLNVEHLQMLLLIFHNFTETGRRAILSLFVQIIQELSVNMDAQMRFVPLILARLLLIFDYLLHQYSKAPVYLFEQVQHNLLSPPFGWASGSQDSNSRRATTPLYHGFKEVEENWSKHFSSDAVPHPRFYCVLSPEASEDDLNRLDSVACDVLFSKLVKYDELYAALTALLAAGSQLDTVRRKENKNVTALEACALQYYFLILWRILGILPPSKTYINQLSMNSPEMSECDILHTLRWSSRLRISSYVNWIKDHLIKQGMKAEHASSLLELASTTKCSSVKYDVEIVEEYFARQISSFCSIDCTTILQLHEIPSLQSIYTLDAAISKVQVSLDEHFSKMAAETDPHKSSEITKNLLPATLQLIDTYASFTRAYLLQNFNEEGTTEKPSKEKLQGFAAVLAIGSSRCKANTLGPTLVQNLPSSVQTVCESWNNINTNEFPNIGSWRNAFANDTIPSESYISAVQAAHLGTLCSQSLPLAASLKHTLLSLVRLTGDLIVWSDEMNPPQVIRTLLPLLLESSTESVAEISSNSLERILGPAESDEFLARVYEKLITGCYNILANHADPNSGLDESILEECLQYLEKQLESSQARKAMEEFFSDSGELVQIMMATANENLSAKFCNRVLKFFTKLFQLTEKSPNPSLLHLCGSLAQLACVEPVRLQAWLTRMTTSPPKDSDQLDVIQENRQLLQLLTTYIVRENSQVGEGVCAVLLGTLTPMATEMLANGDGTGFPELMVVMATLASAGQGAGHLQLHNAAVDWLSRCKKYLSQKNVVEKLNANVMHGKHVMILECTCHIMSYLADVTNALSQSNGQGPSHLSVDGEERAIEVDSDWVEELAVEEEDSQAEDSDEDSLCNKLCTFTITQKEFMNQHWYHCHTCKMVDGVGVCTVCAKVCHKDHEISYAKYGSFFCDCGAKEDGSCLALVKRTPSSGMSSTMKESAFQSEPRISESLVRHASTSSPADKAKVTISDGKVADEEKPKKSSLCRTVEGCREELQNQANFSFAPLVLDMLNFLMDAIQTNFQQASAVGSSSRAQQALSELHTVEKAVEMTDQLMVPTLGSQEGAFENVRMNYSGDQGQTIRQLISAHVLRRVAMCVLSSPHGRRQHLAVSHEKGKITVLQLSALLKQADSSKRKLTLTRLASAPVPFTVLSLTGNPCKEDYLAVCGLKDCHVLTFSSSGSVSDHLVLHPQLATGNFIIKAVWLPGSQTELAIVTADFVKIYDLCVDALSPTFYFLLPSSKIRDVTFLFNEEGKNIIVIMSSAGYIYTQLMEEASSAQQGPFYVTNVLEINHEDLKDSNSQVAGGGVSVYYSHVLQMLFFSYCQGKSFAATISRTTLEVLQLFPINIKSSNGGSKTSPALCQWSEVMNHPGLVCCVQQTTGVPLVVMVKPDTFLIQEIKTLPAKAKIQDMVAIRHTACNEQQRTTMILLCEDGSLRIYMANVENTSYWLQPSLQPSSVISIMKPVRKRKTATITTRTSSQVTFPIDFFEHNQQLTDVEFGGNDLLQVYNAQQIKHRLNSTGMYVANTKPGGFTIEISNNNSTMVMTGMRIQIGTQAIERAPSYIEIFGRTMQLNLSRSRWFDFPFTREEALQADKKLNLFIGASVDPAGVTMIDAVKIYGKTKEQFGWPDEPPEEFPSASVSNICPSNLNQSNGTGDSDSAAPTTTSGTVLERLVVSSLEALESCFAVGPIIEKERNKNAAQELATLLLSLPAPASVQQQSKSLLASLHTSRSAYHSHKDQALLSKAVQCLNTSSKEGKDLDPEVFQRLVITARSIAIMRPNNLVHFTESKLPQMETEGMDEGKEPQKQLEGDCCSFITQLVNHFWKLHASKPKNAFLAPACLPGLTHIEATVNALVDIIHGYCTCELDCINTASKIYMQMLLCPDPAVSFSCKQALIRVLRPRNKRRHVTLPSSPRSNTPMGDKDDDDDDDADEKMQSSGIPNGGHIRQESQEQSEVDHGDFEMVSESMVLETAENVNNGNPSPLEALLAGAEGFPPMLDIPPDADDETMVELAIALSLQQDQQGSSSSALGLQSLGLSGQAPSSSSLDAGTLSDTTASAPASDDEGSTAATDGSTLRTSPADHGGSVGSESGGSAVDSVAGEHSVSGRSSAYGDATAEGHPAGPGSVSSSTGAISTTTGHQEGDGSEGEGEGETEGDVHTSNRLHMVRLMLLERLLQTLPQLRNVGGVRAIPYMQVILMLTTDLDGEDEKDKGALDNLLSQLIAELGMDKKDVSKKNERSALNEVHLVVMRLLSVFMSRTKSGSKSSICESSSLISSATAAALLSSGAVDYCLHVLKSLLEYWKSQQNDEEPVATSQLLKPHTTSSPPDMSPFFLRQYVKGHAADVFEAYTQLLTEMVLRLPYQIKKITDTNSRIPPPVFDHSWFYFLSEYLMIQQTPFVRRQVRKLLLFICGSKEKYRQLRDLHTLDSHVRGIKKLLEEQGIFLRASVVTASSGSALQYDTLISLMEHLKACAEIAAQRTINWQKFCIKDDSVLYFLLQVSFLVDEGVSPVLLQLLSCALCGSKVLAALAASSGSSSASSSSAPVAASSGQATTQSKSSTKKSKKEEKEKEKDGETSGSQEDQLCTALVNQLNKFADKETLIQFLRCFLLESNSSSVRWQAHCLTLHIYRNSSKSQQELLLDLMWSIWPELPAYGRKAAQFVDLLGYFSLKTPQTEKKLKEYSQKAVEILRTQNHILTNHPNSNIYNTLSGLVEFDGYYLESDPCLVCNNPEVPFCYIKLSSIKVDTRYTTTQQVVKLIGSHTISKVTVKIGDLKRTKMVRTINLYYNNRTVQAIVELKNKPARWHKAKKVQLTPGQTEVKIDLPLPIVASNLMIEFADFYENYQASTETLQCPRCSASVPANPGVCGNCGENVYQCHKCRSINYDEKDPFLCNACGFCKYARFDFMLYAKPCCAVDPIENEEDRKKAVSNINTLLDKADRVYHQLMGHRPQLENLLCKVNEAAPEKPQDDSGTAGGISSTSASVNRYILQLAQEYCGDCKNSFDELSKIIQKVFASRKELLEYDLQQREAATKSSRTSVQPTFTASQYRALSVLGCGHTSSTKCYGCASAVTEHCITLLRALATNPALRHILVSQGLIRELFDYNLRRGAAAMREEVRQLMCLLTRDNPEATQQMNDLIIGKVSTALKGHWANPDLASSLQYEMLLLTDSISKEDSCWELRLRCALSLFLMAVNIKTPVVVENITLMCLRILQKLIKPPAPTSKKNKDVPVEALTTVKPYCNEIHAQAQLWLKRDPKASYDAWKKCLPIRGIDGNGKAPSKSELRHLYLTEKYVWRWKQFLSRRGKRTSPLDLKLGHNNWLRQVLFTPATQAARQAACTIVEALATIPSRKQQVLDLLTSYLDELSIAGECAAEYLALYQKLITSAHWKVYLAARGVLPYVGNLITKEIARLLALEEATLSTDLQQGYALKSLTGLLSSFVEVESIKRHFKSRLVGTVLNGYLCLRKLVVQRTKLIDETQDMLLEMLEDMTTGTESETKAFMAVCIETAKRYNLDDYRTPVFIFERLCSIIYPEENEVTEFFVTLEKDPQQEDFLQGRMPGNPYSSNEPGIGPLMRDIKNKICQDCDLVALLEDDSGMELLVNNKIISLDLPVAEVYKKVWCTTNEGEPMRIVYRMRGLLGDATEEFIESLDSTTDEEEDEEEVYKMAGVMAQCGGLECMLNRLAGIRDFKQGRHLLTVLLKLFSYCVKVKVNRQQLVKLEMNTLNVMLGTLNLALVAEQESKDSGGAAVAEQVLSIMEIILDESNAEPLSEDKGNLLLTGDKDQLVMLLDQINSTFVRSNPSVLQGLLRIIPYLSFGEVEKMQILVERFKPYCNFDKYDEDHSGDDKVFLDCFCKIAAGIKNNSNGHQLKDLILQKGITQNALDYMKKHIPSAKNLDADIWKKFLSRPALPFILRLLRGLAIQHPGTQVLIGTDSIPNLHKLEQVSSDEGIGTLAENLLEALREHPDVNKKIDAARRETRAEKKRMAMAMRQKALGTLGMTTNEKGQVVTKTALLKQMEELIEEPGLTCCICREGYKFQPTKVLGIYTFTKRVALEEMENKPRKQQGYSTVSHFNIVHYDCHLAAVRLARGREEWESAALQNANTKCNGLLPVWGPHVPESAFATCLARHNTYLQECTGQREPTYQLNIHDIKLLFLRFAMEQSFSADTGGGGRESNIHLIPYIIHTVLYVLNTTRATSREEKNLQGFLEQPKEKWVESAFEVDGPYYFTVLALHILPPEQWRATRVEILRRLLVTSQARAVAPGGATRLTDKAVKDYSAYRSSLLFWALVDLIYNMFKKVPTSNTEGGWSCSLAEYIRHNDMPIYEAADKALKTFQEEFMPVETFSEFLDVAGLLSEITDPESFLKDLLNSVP
UniProt Q08999, residues 417-1139: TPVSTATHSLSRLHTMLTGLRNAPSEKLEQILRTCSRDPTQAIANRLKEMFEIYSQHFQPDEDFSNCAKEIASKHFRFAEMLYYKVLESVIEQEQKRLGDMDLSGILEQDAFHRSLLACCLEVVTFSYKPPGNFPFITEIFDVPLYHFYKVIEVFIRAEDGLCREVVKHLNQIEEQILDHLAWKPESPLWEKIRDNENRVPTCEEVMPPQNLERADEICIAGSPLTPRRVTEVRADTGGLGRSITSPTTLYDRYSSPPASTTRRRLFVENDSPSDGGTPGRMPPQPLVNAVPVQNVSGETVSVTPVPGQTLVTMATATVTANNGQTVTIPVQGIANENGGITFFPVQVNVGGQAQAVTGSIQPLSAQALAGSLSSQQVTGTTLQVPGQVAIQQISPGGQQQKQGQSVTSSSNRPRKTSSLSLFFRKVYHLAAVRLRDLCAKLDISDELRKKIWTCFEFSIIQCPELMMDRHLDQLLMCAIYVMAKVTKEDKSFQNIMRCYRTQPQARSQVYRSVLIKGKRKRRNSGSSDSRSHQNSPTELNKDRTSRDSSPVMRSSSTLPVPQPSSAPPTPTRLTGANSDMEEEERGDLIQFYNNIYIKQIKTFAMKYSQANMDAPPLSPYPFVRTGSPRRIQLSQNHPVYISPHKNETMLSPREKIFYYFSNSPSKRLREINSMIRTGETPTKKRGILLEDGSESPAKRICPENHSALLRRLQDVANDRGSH
UniProt P03129: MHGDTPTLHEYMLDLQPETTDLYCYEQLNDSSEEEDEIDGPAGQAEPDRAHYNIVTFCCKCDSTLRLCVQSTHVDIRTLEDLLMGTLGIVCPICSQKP

What was measured:
[1] = biological target: T1, full-length RB with HA epitope tag (pTB701), exogenously expressed (UniProt P06400); experiment: co-immunoprecipitation from transfected COS-7 cells
T1 sequence (looked up): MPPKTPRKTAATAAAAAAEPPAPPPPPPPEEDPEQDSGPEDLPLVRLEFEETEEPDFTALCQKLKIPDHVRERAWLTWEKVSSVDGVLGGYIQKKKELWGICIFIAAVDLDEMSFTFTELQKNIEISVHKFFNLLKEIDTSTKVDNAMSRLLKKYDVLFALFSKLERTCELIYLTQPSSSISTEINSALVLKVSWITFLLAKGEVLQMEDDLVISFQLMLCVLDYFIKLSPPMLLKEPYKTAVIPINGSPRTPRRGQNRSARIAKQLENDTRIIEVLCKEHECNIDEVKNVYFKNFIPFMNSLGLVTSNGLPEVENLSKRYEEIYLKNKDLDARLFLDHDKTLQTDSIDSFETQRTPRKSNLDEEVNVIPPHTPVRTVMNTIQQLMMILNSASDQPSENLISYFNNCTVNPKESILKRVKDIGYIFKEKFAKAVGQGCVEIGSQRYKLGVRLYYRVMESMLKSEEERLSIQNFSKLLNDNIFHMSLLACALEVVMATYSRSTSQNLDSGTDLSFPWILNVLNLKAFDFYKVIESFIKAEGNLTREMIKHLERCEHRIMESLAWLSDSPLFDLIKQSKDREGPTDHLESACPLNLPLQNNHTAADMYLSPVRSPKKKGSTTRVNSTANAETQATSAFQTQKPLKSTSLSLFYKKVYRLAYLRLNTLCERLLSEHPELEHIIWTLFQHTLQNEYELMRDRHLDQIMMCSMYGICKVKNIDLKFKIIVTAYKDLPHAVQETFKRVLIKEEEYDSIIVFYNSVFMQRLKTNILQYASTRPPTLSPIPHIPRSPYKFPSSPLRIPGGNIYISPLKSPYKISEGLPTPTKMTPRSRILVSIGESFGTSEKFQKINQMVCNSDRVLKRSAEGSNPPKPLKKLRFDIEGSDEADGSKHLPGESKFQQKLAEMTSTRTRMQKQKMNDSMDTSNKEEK

[2] = biological target: T2, GST-RB (379-928) (UniProt P06400); experiment: GST-RB (379-928) pull-down from extract of transfected COS-7 cells, anti-FLAG immunoblot
T2 sequence (looked up): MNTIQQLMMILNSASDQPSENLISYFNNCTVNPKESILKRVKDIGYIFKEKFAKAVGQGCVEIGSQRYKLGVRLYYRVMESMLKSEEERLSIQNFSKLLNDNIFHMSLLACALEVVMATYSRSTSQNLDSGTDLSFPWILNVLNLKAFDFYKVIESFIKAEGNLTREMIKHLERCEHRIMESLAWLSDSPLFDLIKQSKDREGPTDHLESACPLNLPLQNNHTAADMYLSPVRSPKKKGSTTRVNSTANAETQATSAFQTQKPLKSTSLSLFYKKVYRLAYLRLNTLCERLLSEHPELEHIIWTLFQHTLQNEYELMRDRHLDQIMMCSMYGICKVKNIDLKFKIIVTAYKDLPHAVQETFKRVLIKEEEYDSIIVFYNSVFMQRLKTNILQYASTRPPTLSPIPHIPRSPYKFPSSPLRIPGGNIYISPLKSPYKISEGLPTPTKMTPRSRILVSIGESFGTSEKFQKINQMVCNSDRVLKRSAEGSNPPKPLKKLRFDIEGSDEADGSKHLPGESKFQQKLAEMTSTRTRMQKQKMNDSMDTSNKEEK

[3] = biological target: MTAF600 (microtubule associated factor 600) (human) (UniProt Q5T4S7); experiment: GST pull-down of large pocket domains, immunoblot
[4] = biological target: MTAF600 (microtubule associated factor 600) (human) (UniProt Q5T4S7); experiment: GST pull-down from HeLa nuclear extract, anti-MTAF600 immunoblot
[5] = biological target: T2, GST-RB (379-928); experiment: GST-RB (379-928) pull-down of His-tagged fragment from E. coli; binding almost stoichiometric judging from the Coomassie-stained gel
[6] = biological target: T2, GST-RB (379-928); experiment: GST-RB (379-928) pre-incubated with E7, GST pull-down, SDS-PAGE with Coomassie stain

What does the source list for “FLAG-tagged MTAF600 (3910-4851) (from UniProt Q5T4S7 3910-4851)”?
binding [1]: binds; binding [2]: binds

“GST fusion of the large pocket domain of p130 (from UniProt Q08999 417-1139)” was tested. Which binding [3] did it give?
The binding was “binds”.

What about the binding [4] of the same substance?
Its binding is “binds”.

Which binding [5] does the source give for “His-tagged MTAF600 (4293-4534) (from UniProt Q5T4S7 4293-4534)” here?
Its binding is “binds”.

How did the binding [6] turn out when “recombinant HPV-16 E7 (His-tagged) (from UniProt P03129 1-98)” was run?
The binding was “binds”.
